Measured values: patent US20190276557A1 (APROGEN KIC, published 2019)
These are yes or no findings as the source states them, for the method shown. For some of these results: Binding seen in cells or lysates may run through a third protein. Some binding calls cover weakened binding; strength is not graded here. Each block holds one binder with its values, some of them ahead of it.

Chains of the proteins cited; added tags and fusions are not shown. Lines headed by an entry give the natural chain unless they say otherwise; changes in a name come on top.
UniProt O43570: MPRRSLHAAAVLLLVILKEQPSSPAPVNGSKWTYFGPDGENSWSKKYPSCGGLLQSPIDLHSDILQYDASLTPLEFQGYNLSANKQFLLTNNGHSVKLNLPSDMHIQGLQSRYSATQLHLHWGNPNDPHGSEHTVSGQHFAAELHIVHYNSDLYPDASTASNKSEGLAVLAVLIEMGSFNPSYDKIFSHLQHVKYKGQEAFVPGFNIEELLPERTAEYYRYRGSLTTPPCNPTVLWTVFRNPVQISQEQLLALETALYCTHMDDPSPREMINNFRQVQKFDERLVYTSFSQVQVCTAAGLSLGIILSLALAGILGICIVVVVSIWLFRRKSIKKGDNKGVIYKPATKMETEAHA

Tests used:
[1] = biological target: recombinant protein carbonic anhydrase 12 (R&D Systems) (Homo sapiens (Human)) (UniProt O43570); assay: Western blot of boiled recombinant CA12
[2] = biological target: recombinant protein carbonic anhydrase 12 (R&D Systems) (Homo sapiens (Human)) (UniProt O43570); assay: Western blot of recombinant CA12
[3] = biological target: carbonic anhydrase 12 isoform 1 isolated from A549 cell lysate (human) (UniProt O43570); assay: antibody affinity column on A549 lysate, LC-MS/MS of the eluted antigen
[4] = biological target: recombinant protein carbonic anhydrase 12 (R&D Systems) (Homo sapiens (Human)) (UniProt O43570); assay: ELISA on coated recombinant CA12
[5] = biological target: recombinant protein carbonic anhydrase 12 (R&D Systems) (Homo sapiens (Human)) (UniProt O43570); assay: sandwich ELISA on recombinant CA12
[6] = biological target: recombinant protein carbonic anhydrase 12 (R&D Systems) (Homo sapiens (Human)) (UniProt O43570); assay: ELISA on coated recombinant CA12 (100 ng/well)
[7] = biological target: carbonic anhydrase 12 (CA-XII) on the surface of human tumour cell lines (human) (UniProt O43570); assay: flow cytometry on MDAMB-231 cells

binding [1]: binds | binding [2]: binds | binding [3]: binds | binding [4]: binds | binding [5]: binds | binding [6]: binds
B1: 27B6 monoclonal antibody (mouse, hybridoma KCLRF-BP-00280) (antibody, mouse IgG1, V domains shown)
VH: QVQLQQSGPQLVWPGASVKISCNTSGYSFTNYWIHWVKQRPGQGLEWIGMIDPSDSETRLNQKFKDKTTLTVDRSSSTAYMQVSSSTSEDSAVYYCTRGIRGGYYAMDYWGQGTSVTVSS
VL: DIQMTQTTSSLSASLGDRVTISCRASQDISNYLNWYQQKPEGTVKLLIYYTSRLHSGVPSRFSGSGSGTDYSLTISNLEQEDIATYFCQQGDTLPRTFGEGTKLEIR

binding [7]: binds
B2: DNP004 humanized antibody (antibody, V domains shown)
VH: EVQLVESGGGLVQPGGSLRLSCAASGYSYTDYNIYWVRQAPGKGLEWVGYIDPANGDTTYNQKFKGRATISVDKSKNTAYLQMNSLRAEDTAVYYCSRPIYYGAYWYFDVWGQGTLVTVSS
VL: DIQMTQSPSSLSASVGDRVTITCRASSSVTYMHWYQQKPGKAPKPWIYGTSRLVSGVPSRFSGSGSGTDFTLTISSLQPEDFATYYCQQWSSNPLTFGQGTKVEIK
